Where no end group is shown, it is not given here.

The test system of the data set is bacteria over hRBCs. As to the kind of experiment: Therapeutic index (MHC5/GM). To be noted: MHC5 >256 μM counted as 512 μM.
With WFKAAAKAAAKFW-NH2 [WF], the Therapeutic index is given as 23.5.

Substance WIKAAAKAAAKIW-NH2 [WI] gave a Therapeutic index of 14.8.

With WVKAAAKAAAKVW-NH2 [WV], the Therapeutic index was 3.4.

In turn, WWKAAAKAAAKWW-NH2 [WW] showed a Therapeutic index of 64.0.
